Measurements: PubChem BioAssay AID540276 (National Center for Advancing Translational Sciences (NCATS), 2011)
“And” between values parts separate entries of the source, which are not always exact repeats. Equal values may be shown once. The campaign covered roughly 300,000 compounds. About 5,400 (1.8%) were called active. This list was built around the results that the source calls inconclusive (neither active nor inactive); the mix of calls is not that of the screen. The call rests on the fitted dose curve; tested in HEK293 cells. A potency beside an inconclusive call is a rough fit, not a confirmed value.

experiment: qHTS for inhibitors of binding or entry into cells for Marburg Virus; details: Marburg virus pseudotyped entry inhibition, cell reporter; series mostly up to 37.8 µM
Potency means the concentration at half of the fitted maximal effect.

Row | Compound | Potency
1 | Cc1ccc(-c2cn(-c3ccccc3)c3[n+]2CCCS3)cc1 | inconclusive: 23.1 µM [inhibitor, single point] and inconclusive: 22.4 µM [inhibitor, single point]
2 | CC(NC(C(=O)c1ccccc1)c1ccccc1)c1ccccc1 (configuration not stated) | inconclusive: 8.91 µM [activator, single point]
3 | Cc1sc2ncn(CC(=O)N3CCOCC3)c(=O)c2c1-c1ccccc1 | inconclusive: 1.26 µM [activator, single point]
4 | COc1ccc(CCNC(=O)CCSc2nc(-c3ccco3)cc(C(F)(F)F)n2)cc1 | inactive
5 | Cc1occc1C(=O)N/N=C/c1ccc(N(C)C)cc1 | inconclusive: 10 µM [inhibitor, partial curve, poor fit]
6 | Cc1occc1C(=O)N1CCCC(Nc2ccc(C(C)C)cc2)C1 (configuration not stated) | inconclusive: 35.5 µM [inhibitor, single point]
7 | CN1C(=S)N(c2cccnc2)C(=O)/C1=C\c1ccc(N(C)C)cc1 | inconclusive: 35.5 µM [inhibitor, single point]
8 | COc1ccc(Nc2nc3ccccc3n3cnnc23)cc1 | inactive
9 | O=C(CN1C(=O)C2CCCCC2C1=O)NC1CCCc2ccccc21 (configuration not stated) | inactive
10 | CSc1ccccc1NC(=O)CN(C)Cc1ccc(Br)cc1 | inactive
11 | COc1ccc(NC(=O)CN2CCC(n3c(C)nc4cc(F)ccc43)CC2)c(OC)c1 | inactive
12 | CCc1ccc(C(=O)CC2(O)C(=O)N(CCc3ccccc3)c3ccc(Cl)cc32)cc1 (configuration not stated) | inconclusive: 0.631 µM [inhibitor, full curve, poor fit]
13 | Cc1ccc2ccc(S(=O)(=O)n3nc(C)cc3C)cc2c1 | inactive
14 | CCN(Cc1ccncc1)Cc1ccc(Br)cc1 | inactive
15 | c1ccc(CN2CCC(Nc3nc(-c4cccnc4)nc4ccccc34)CC2)cc1 | active: 10 µM
16 | CC(=O)N1CCSc2ccc(S(=O)(=O)NCc3ccccc3)cc21 | inactive
17 | CN(C)CCOC(=O)CCc1ccccc1 | inconclusive: 1 µM [activator, partial curve, poor fit]
18 | O=C(Nc1ccc(Cl)cc1)N(Cc1cccs1)Cc1cccs1 | inconclusive: 28.2 µM [inhibitor, single point]
19 | CC(C)CNC(=S)N(CCN(C)C)Cc1cc2cc3c(cc2[nH]c1=O)OCO3 | inactive
20 | C#CC(=O)N(c1ccc(OC)cc1OC)C(C(=O)NC1CCCC1)c1cccs1 (configuration not stated) | inconclusive: 6.31 µM [inhibitor, full curve, poor fit]
21 | O=C1CNC(=S)N1CCc1ccc(O)c(O)c1 | inactive
22 | COc1cccc(N(CC(=O)N2CCN(c3ccccc3OC)CC2)S(C)(=O)=O)c1 | inconclusive: 0.461 µM [inhibitor, full curve, poor fit]
23 | O=C1/C(=C/c2ccc(F)cc2)CCC1C1CCCC1 (configuration not stated) | inconclusive: 0.891 µM [inhibitor, single point]
24 | CC1(C)C2CC=C(CN3CCC(O)CC3)C1C2 (configuration not stated) | inactive

Of the compounds above, two have bromine.
Row | Compound | Potency
10 | CSc1ccccc1NC(=O)CN(C)Cc1ccc(Br)cc1 | inactive
14 | CCN(Cc1ccncc1)Cc1ccc(Br)cc1 | inactive

(further entries)

Row | Compound | Potency
25 | Cc1cc2c(c(=O)o1)[C@H]1O[C@](c3ccsc3)(Cc3c1ccc1ccccc31)O2 | inconclusive: 0.0119 µM [inhibitor, full curve, poor fit]
26 | CN1CCN(C(c2ccc(F)cc2)c2nnnn2Cc2cccs2)CC1 (configuration not stated) | inconclusive: 35.5 µM [inhibitor, single point]
27 | NNC(=O)c1ccc(CN2CCCCC2)o1 | inactive
28 | COc1ccc(N(C(=O)Cn2nnc3ccccc32)C(C(=O)NCc2ccccc2)c2ccc(F)cc2)cc1 (configuration not stated) | inactive
29 | Cc1cc(NC(=O)CSCC(=O)Nc2ccccc2N2CCCCC2)no1 | inconclusive: 35.5 µM [inhibitor, single point]
30 | CCn1c(SCc2nc3ccccc3[nH]2)nnc1-c1cccs1 | inconclusive: 0.562 µM [activator, full curve, poor fit]
31 | Cn1c(=O)c2c(-c3ccc(Cl)cc3)n(CCc3ccccc3)cc2n(C)c1=O | inconclusive: 35.5 µM [inhibitor, single point]
32 | Cc1ccc2nc(Cl)c3cc(C(=O)N4CCCCC4)sc3c2c1 | inactive
33 | CS(=O)(=O)c1cnc(-c2ccccc2)nc1Oc1ccc(F)cc1 | inconclusive: 3.16 µM [activator, single point]
34 | COc1c(F)c(F)c(C(=O)Nc2ccc(N3CCN(C(C)=O)CC3)c(Cl)c2)c(F)c1F | inconclusive: 29.1 µM [inhibitor, single point]
35 | CC1=C(C)C(=O)N(CCC(=O)O)C1=O | inconclusive: 20.6 µM [activator, single point]
36 | CCn1c2ccccc2c2cc(NC(=O)COC(=O)c3cccc(S(=O)(=O)NC)c3)ccc21 | inactive
37 | Cn1c(=O)c(/C=C/c2ccc(F)cc2)nc2ccccc21 | inactive
38 | O=C(OC(C(=O)Nc1cccc(C(F)(F)F)c1)c1ccccc1)C1CCCCC1 (configuration not stated) | inactive
39 | CCn1cc(CNC(=O)NC2CCCCC2)c(C)n1 | inconclusive: 9.2 µM [activator, partial curve]
40 | O=C(OCC(=O)N1CCc2ccccc21)c1c2c(nc3ccccc13)CCCCC2 | inconclusive: 12.6 µM [inhibitor, single point]
41 | Cc1cccc(/C=N/NC(=O)CNc2cccc3ccccc23)n1 | inconclusive: 1.64 µM [inhibitor, partial curve, poor fit]
42 | CN(C)/C=N/c1nc2nccc(-c3ccccn3)n2n1 | inconclusive: 0.562 µM [inhibitor, partial curve, poor fit]
43 | O=[N+]([O-])c1ccc2c(c1Nc1ccccc1)=NC1(CCCCC1)N=2 | inactive
44 | Cc1cc(-c2nn(-c3ccccc3F)cc2CN2CCCC(CO)C2)c(C)s1 (configuration not stated) | active: 5.62 µM
45 | CSCc1ccc(C(=O)Nc2cccc(C)c2C)cc1 | inconclusive: 3.98 µM [activator, partial curve, poor fit]
46 | CCN1CCCc2cc(CN(CCN3CCOCC3)C(=O)Nc3ccc(C)c(C)c3)ccc21 | inconclusive: 11.2 µM [inhibitor, partial curve, poor fit]
47 | Cc1cc(NC(=O)CCN2C(=O)C3C4CCC(C4)C3C2=O)cc(C)c1Br (configuration not stated) | inconclusive: 17.8 µM [inhibitor, single point]
48 | CCN1C(=O)c2ccc(C(=O)Nc3c(C)cc(C)cc3C)cc2C1=O | inactive

5 entries already listed, ordered by count of non-hydrogen atoms, ascending.
Row | Compound | Potency
14 | CCN(Cc1ccncc1)Cc1ccc(Br)cc1 | inactive
39 | CCn1cc(CNC(=O)NC2CCCCC2)c(C)n1 | inconclusive: 9.2 µM [activator, partial curve]
26 | CN1CCN(C(c2ccc(F)cc2)c2nnnn2Cc2cccs2)CC1 (configuration not stated) | inconclusive: 35.5 µM [inhibitor, single point]
38 | O=C(OC(C(=O)Nc1cccc(C(F)(F)F)c1)c1ccccc1)C1CCCCC1 (configuration not stated) | inactive
46 | CCN1CCCc2cc(CN(CCN3CCOCC3)C(=O)Nc3ccc(C)c(C)c3)ccc21 | inconclusive: 11.2 µM [inhibitor, partial curve, poor fit]

The results go on.

Row | Compound | Potency
49 | O=C1O[C@H](Nc2ccc(Br)cc2F)c2ccccc21 | inconclusive: 5.8 µM [activator, full curve, poor fit]
50 | Cc1ccc(S(=O)(=O)NCCC(=O)Nc2ccc(C)c(Cl)c2)cc1C | inconclusive: 2.82 µM [inhibitor, full curve, poor fit]
51 | Cc1onc(-c2c(F)cccc2Cl)c1C(=O)OCC(=O)NCc1ccccc1 | inconclusive: 0.112 µM [inhibitor, full curve, poor fit]
52 | Cc1ccc(N2CCN(c3ccc(C)cc3)C(CC(=O)O)C2=O)cc1 (configuration not stated) | inactive
53 | COc1ccc(-c2cc(C(=O)Nc3ccccc3SC)no2)cc1OC | inconclusive: 18.3 µM [inhibitor, single point]
54 | CC(=O)N1N=C(c2ccco2)CC1c1cccs1 (configuration not stated) | inactive
55 | COc1ccc(C(CNC(=O)c2cccc3cccnc23)N(C)C)cc1 (configuration not stated) | inactive
56 | COc1ccc(C(C)=O)cc1CSc1nc2ccccc2c(=O)n1-c1ccccc1C | inconclusive: 15.8 µM [inhibitor, partial curve, poor fit]
57 | COc1cc(C)ccc1OCCCCN1CC(C)OC(C)C1 (configuration not stated) | inconclusive: 35.5 µM [inhibitor, single point]
58 | CCOC(=O)c1sc2nc(C)cc(C)c2c1N | inconclusive: 7.3 µM [activator, partial curve, poor fit]
59 | COc1ccc(OC(=O)c2nc(SCc3ccccc3C)ncc2Cl)cc1 | inconclusive: 35.5 µM [activator, single point]
60 | O=C1C(Cl)=C(Nc2ccc(O)cc2)C(=O)c2ccccc21 | inconclusive: 14.1 µM [inhibitor, partial curve, poor fit]
61 | CCn1nc(C)c(NC(=O)/C=C/c2ccc(OC)c(COc3ccc(Br)cc3)c2)c1C | inconclusive: 5.17 µM [inhibitor, partial curve, poor fit]
62 | CCSc1oc(-c2ccco2)nc1S(=O)(=O)c1ccc(C)cc1 | inconclusive: 1 µM [inhibitor, partial curve, poor fit]
63 | O=c1[nH]c(CSc2nnc(-c3cccnc3)n2C2CCCCC2)nc2ccccc12 | inactive
64 | COc1ccc(/C=C/C(=O)Nc2ccncc2)cc1OC | inactive
65 | CCCOc1ccc(C(=O)N(Cc2ccco2)Cc2ccco2)cc1 | inactive
66 | COc1ccc(N(CC(=O)N2CCc3ccccc32)S(=O)(=O)c2c(C)nn(C)c2C)cc1 | inactive
67 | COc1cc(/C=C2/CCc3ccccc3C2=O)cc(OC)c1OC | active: 11.2 µM
68 | CCc1cc2c(SCC(=O)C(C#N)=C3N(C)c4ccccc4N3C)ncnc2s1 | inconclusive: 25.1 µM [inhibitor, partial curve, poor fit]
69 | COc1ccc(C2=NN(C(=O)c3ccncc3)C(c3ccccc3O)C2)cc1 (configuration not stated) | inconclusive: 25.1 µM [inhibitor, single point]
70 | Cc1sc2ncnc(NCC(c3ccco3)N3CCCC3)c2c1C (configuration not stated) | inconclusive: 22.4 µM [inhibitor, partial curve, poor fit]
71 | O=C(COC(=O)C(O)c1ccccc1)NC12CC3CC(CC(C3)C1)C2 (configuration not stated) | inconclusive: 0.794 µM [inhibitor, single point]
72 | O=C(NCCO)c1ccc2nc(-c3ccco3)c(-c3ccco3)nc2c1 | inactive
